Out of some 2,400 compounds screened, about 20 (0.8%) were called active.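 The calls were made as follows: active = AC50 no more than ten times the highest tested concentration, or full inhibition at every dose giving a flat fit (cut at about 30 µM in these data); inconclusive = flat fit with activity between 30% and 70%, or poor-quality invalid fit; inactive = AC50 more than ten times the top tested dose.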 The list shows a part of the results.
Assay: luciferase-based ADP detection interference – biochemical, luminescence, cell-free, homogeneous, artefact control for GSK-3a inhibitor project, dose response (AID 463205);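 also: kinase-free counter-screen against the ADP-Glo detection reagents only; potency is for inhibitors that reduce the luminescence signal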
Details: Cell-free ADP-Glo detection reagents, 5 uM ADP

AC50, inactive:
CN(C)/C=C/c1[nH]c(=O)[nH]c(=O)c1[N+](=O)[O-] > 30 µM, Cc1c(C(=O)OC(C)C)[nH]c2c1C(=O)CCC2 > 30 µM, Cc1ccc(OCc2nnnn2-c2ccccc2)cc1 > 30 µM, Cc1ccc(S(=O)(=O)CCSc2n[nH]c(=O)n2-c2ccccc2)cc1 > 30 µM, COc1cc(C(=O)NCC(=O)N/N=C\C(C)=C/c2ccccc2)cc(OC)c1OC > 30 µM, Cc1ccnc(NC(=O)CCC(=O)N(CC(=O)NCc2ccc(F)cc2)Cc2ccco2)c1 > 30 µM, Cc1cccc(NC(=O)CSCC(=O)OCc2ccccn2)c1 > 30 µM, Cc1ccc(C(=O)N/C(=C/c2ccc(-c3cccc([N+](=O)[O-])c3)o2)C(=O)NC(C)C)cc1 > 30 µM, COc1cccc(NC(=O)[C@@H]2CCCN2S(=O)(=O)c2cccc3cccnc23)c1 > 30 µM, Oc1cc(O)cc(/C=C/c2ccc(O)c(O)c2)c1 > 30 µM, Cc1cnc(NC(=O)C2CCCC2)s1 > 30 µM, CCN1CCN(c2nc(Nc3cccc(OC)c3)nc(N)c2[N+](=O)[O-])CC1 > 30 µM, CC(=O)Nc1c(C(=O)O)oc2ccc(Cl)cc12 > 30 µM, COc1ccc(N=Cc2c(O)[nH]c3ccccc23)cc1OC > 30 µM, O=C(O)CCSc1nnc(-c2ccncc2)n1-c1ccccc1 > 30 µM, O=C(Nc1ccccc1N1CCN(C(=O)c2ccccc2)CC1)c1ccc(Br)o1 > 30 µM, COc1ccc(COC(=O)C2=C(C)NC(=O)NC2c2ccc(OC)c(OC)c2)cc1 (configuration not stated) > 30 µM, Cc1nc(SCC(=O)Nc2ccccc2C(F)(F)F)c(C#N)c(C)c1CC(=O)c1ccc(Br)cc1 > 30 µM, CCOC(=O)c1nnn(-c2nonc2N)c1-c1ccccc1Cl > 30 µM, Cc1ccsc1C1C2=C(CCCC2=O)Nc2ncnn21 (configuration not stated) > 30 µM, COc1cc(/C=c2\s/c(=C\C(=O)C(C)(C)C)[nH]c2=O)cc(OC)c1OC > 30 µM, FC(F)(F)c1ccccc1/C=N/n1c(C2CCCCC2)n[nH]c1=S > 30 µM, COc1cc(OC)cc(C(=O)O/N=C(\N)c2ccccn2)c1 > 30 µM, Cc1ccc(-n2c(SCc3ccc(C(=O)O)cc3)nnc2-c2ccncc2)cc1 > 30 µM, CO/N=C/c1ccc(N2CCCC2)c([N+](=O)[O-])c1 > 30 µM, CN1C(=O)N(C)C2(c3ccccc3)Nn3c(s/c(=C/c4ccccc4)c3=O)=NC12c1ccccc1 (configuration not stated) > 30 µM, CC(C)(C)c1ccc(/C=C2\Oc3cc(O)ccc3C2=O)cc1 > 30 µM, CN(CCc1ccccn1)c1ncnc2[nH]ncc12 > 30 µM, Cc1ccc(S(=O)(=O)Nc2cccc3ncccc23)cc1 > 30 µM, COc1cc(C(=O)NCC(=O)N/N=C(C)\C=C\c2ccccc2)cc(OC)c1OC > 30 µM, CCc1ccc(N2CSC3=C(C#N)C(c4cccs4)CC(=O)N3C2)cc1 (configuration not stated) > 30 µM, FC(F)(F)c1nnc2n1N=C(c1cccs1)CS2 > 30 µM, CC1(C)CC(=O)C(C(c2ccncc2)C2C(=O)CC(C)(C)CC2=O)C(=O)C1 > 30 µM, Oc1ccc(-c2n[nH]c(=S)n2-c2ccc3c(c2)OCCO3)cc1 > 30 µM, O=C(COC(=O)c1cc(S(=O)(=O)N2CCOCC2)ccc1F)Nc1ccc(Cl)cn1 > 30 µM, O=C1c2ccccc2C(=O)c2c(Nc3ccc(CCO)cc3)ccc(O)c21 > 30 µM, NC(=O)c1c(NC(=O)CSc2nnc(-c3ccccc3)n2CC2CCCO2)sc2c1CCC2 (configuration not stated) > 30 µM, CCOC(=O)Cc1c[nH]c2ccccc12 > 30 µM, CCOC(=O)C1=C(c2ccccc2)Nc2ncnn2C1c1cccc(OC)c1OC (configuration not stated) > 30 µM, Cc1ccc2c(c1)Oc1ccc(NC(=O)CCCl)cc1C(=O)N2 > 30 µM, Nc1cc(C(=O)O)c(N)c2c1C(=O)c1ccccc1C2=O > 30 µM, CCN(CC)CCOc1ccc2c(c1)C(=NNC(=O)c1ccccn1)c1cc(OCCN(CC)CC)ccc1-2 > 30 µM, CN1/C(=C/C2CC(=O)NC2=O)C(C)(C)c2ccccc21 (configuration not stated) > 30 µM, O=C(O)COc1c(Cl)cc(/C=C2/NC(=O)NC2=O)cc1Br > 30 µM, CCn1c2ccccc2c2nnc(SCC(N)=O)nc21 > 30 µM, O=[N+]([O-])c1cc(S(=O)(=O)N2CCCC2)ccc1NCCCN1CCOCC1 > 30 µM, CC1(C)CC(=O)C(CS(=O)(=O)c2ccccc2)=C(O)C1 > 30 µM
